The list shows a part of the results.
Assays:
Assay in all cases: log2 fold change, soluble protein after heating vs DMSO (PISA); higher = thermal stabilisation; K562 lysate, 10 uM; active = over 0.2 and 3.5 SD of the protein, either way, in both replicates (recomputed)
lapatinib = compound: CS(=O)(=O)CCNCc1ccc(-c2ccc3ncnc(Nc4ccc(OCc5cccc(F)c5)c(Cl)c4)c3c2)o1 [lapatinib]
Outline: (§1)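 Quantification was by TMTpro 16plex LC-MS/MS with equalised channel sums, applied to the supernatant after 21,000xg for 90 min. Samples were crude K562 extract at 1 mg/mL protein in PBS pH 7.4 with 1 mM MgCl2, treated with 10 μM compound for 30 min, heated for 3 min across 48°C-58°C, pooled and brought to 0.5% NP-40 at 4°C. Values are log-two fold changes in thermal stability relative to solvent controls, from duplicates.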

Protein sequences, listed by entry. Tags and fused reporters are not part of them. Lines headed by an entry give the natural chain unless they say otherwise; changes in a name come on top.
UniProt Q9H9H4: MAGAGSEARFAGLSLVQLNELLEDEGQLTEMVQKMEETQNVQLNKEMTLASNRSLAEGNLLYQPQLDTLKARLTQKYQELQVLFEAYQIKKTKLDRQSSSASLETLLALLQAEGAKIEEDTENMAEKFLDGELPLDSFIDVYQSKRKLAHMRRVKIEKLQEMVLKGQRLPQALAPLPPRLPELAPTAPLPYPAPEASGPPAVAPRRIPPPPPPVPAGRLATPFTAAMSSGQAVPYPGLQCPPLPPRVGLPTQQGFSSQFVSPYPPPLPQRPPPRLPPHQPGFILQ
UniProt Q9P1Q0: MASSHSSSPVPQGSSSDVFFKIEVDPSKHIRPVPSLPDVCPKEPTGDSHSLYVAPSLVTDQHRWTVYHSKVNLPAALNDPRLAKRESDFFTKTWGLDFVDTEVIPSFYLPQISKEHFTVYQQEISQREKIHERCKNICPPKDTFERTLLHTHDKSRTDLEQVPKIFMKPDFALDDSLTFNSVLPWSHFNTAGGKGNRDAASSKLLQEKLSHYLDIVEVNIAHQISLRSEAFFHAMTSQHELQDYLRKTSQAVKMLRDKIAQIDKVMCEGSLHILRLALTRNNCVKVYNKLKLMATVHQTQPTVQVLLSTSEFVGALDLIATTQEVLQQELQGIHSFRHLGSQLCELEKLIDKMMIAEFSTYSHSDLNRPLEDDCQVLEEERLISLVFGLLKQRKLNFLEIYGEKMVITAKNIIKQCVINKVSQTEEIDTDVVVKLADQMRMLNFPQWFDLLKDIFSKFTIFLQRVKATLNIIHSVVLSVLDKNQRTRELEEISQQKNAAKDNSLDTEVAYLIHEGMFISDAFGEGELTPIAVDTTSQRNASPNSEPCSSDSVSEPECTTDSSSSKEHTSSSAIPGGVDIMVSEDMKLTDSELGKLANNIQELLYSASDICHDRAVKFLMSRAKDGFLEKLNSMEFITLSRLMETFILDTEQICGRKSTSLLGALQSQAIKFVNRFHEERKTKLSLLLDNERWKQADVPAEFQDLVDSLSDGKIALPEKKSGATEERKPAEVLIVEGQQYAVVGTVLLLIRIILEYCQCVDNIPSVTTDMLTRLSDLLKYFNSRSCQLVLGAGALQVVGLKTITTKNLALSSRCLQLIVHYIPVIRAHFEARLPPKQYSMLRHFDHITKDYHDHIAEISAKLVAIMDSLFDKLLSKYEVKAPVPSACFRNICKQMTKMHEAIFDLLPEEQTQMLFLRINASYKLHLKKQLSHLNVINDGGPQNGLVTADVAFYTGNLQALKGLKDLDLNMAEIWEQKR
UniProt Q96AJ9: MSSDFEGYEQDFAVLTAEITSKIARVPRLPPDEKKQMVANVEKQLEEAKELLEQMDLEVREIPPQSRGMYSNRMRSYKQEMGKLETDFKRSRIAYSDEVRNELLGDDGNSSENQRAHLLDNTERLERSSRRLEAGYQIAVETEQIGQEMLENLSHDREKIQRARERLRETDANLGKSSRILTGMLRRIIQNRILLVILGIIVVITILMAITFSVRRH
UniProt P49754: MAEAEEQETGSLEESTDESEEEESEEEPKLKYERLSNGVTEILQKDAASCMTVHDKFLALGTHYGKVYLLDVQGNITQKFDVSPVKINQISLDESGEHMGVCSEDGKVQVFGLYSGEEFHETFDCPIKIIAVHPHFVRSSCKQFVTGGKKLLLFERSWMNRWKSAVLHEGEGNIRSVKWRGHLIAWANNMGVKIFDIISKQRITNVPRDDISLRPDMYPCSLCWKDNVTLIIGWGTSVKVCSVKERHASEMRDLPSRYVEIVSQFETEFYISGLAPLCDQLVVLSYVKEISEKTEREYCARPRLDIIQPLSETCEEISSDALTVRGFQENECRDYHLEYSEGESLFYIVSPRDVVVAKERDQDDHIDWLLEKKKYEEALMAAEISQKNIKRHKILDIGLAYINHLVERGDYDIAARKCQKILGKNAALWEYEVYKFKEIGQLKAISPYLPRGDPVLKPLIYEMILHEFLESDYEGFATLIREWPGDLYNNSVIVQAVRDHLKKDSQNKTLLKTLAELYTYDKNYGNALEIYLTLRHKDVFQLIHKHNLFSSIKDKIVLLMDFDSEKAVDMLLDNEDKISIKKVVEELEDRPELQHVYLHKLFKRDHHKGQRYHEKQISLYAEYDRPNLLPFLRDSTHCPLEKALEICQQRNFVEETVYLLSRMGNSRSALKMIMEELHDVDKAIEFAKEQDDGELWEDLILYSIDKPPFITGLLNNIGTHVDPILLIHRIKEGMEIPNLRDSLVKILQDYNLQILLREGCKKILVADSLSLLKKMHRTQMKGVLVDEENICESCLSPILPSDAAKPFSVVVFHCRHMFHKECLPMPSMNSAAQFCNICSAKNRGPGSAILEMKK
UniProt Q9BQA1, whole entry, looked up: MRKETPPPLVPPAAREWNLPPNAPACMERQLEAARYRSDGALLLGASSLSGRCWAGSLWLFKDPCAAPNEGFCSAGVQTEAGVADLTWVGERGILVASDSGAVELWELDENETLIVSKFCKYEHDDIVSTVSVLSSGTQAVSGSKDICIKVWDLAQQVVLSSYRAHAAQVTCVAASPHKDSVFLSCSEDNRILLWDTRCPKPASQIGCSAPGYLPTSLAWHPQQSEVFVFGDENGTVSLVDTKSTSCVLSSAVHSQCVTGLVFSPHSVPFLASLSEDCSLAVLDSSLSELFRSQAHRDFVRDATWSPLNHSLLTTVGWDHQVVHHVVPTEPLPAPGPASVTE
UniProt Q9H6Y2: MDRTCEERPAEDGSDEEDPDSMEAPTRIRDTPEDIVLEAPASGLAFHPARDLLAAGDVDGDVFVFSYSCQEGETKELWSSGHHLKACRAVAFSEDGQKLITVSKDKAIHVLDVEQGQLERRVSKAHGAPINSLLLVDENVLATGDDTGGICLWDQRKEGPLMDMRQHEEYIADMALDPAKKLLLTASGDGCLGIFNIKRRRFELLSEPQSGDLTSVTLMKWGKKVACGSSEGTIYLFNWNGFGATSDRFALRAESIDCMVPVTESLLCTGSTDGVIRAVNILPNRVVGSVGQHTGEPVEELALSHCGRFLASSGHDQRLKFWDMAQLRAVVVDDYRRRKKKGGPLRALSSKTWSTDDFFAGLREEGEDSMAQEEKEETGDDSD
UniProt O43379: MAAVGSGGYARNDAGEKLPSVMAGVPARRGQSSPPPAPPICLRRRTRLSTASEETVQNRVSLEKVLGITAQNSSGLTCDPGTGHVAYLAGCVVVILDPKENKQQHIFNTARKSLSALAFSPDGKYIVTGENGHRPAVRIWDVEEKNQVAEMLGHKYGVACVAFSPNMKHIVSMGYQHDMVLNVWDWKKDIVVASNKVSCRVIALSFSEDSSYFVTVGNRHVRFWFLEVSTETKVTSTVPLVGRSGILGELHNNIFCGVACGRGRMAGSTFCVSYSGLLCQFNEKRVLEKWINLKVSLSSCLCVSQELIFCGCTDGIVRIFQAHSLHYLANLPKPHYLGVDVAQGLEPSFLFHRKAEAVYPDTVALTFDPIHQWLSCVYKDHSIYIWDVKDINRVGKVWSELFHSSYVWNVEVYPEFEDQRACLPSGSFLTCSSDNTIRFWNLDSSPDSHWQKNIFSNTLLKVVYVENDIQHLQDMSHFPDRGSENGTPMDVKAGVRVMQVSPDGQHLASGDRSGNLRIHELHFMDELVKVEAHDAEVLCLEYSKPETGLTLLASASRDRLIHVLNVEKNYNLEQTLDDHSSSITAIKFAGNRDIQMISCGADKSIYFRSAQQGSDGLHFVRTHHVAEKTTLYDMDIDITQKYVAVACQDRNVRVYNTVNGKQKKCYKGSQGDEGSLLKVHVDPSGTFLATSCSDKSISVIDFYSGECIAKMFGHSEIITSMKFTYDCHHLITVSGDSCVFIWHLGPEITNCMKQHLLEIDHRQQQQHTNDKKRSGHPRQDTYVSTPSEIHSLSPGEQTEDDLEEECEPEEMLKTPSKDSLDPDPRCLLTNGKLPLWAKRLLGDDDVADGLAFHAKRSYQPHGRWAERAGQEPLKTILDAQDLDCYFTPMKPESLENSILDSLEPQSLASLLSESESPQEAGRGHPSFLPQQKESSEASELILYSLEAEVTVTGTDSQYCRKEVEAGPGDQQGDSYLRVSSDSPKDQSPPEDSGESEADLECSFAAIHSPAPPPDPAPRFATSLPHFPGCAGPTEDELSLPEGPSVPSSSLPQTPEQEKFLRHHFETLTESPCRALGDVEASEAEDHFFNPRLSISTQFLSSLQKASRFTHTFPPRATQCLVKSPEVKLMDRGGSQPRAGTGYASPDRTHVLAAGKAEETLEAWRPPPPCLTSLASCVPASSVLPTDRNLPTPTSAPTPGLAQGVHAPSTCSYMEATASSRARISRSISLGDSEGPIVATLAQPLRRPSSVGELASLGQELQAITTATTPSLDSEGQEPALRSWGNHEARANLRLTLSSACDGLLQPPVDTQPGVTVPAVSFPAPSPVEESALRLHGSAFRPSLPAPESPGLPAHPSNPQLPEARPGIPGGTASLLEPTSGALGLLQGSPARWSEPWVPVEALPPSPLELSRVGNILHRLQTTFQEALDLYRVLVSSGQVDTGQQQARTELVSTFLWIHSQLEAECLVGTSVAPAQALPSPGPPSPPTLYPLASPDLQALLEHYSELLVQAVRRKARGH
UniProt Q15007: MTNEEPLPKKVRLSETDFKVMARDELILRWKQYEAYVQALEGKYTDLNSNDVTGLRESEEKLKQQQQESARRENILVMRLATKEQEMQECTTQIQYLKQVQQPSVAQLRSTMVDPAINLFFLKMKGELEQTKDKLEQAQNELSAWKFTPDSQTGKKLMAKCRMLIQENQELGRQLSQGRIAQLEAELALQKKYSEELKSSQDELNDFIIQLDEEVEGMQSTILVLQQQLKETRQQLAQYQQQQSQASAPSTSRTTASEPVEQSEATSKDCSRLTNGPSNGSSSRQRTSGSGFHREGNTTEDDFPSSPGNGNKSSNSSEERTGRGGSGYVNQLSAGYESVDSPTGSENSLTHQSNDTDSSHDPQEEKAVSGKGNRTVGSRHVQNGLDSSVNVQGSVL
UniProt Q8N9V3: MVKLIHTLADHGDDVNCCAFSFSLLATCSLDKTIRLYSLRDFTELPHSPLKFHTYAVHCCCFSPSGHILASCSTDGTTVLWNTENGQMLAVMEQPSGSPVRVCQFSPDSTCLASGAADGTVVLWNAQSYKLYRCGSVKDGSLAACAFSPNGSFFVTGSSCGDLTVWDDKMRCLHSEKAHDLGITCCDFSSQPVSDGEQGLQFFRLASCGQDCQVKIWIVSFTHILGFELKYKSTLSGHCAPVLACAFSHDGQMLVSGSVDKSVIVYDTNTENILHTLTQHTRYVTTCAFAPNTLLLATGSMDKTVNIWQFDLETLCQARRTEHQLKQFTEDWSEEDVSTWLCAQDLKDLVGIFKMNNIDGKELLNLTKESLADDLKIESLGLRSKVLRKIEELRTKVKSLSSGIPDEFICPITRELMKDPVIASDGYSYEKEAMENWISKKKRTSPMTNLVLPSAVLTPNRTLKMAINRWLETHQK

pictilisib = compound: CS(=O)(=O)N1CCN(Cc2cc3nc(-c4cccc5[nH]ncc45)nc(N4CCOCC4)c3s2)CC1 [pictilisib]
Outline: as §1

crizotinib = compound: C[C@@H](Oc1cc(-c2cnn(C3CCNCC3)c2)cnc1N)c1c(Cl)ccc(F)c1Cl [crizotinib]
Outline: as §1

[1] = compound: C[C@H](C1=CC=C(C=C1)C(=O)NC2=C3C=CNC3=NC=C2)N
Outline: as §1

duvelisib = compound: C[C@H](Nc1ncnc2nc[nH]c12)c1cc2cccc(Cl)c2c(=O)n1-c1ccccc1 [duvelisib]
Outline: as §1

gandotinib = compound: Cc1cc(Nc2cc(CN3CCOCC3)c3nc(C)c(Cc4ccc(Cl)cc4F)n3n2)n[nH]1 [gandotinib]
Outline: as §1

tozasertib = compound: Cc1cc(Nc2cc(N3CCN(C)CC3)nc(Sc3ccc(NC(=O)C4CC4)cc3)n2)n[nH]1 [tozasertib]
Outline: as §1

doramapimod = compound: Cc1ccc(-n2nc(C(C)(C)C)cc2NC(=O)Nc2ccc(OCCN3CCOCC3)c3ccccc23)cc1 [doramapimod]
Outline: as §1

bafetinib = compound: Cc1ccc(NC(=O)c2ccc(CN3CC[C@H](N(C)C)C3)c(C(F)(F)F)c2)cc1Nc1nccc(-c2cncnc2)n1 [bafetinib]
Outline: as §1

[2] = compound: Cc1cccc(CC(=O)N2CCc3c2ccc(-c2cn(C)c4ncnc(N)c24)c3F)n1
Outline: as §1

nilotinib = compound: Cc1cn(-c2cc(NC(=O)c3ccc(C)c(Nc4nccc(-c5cccnc5)n4)c3)cc(C(F)(F)F)c2)cn1 [nilotinib]
Outline: as §1

[3] = compound: Cc1nc(Nc2n[nH]c3c2CN(C(=O)N[C@H](CN(C)C)c2ccccc2)C3(C)C)c2sccc2n1
Outline: as §1

dasatinib = compound: Cc1nc(Nc2ncc(C(=O)Nc3c(C)cccc3Cl)s2)cc(N2CCN(CCO)CC2)n1 [dasatinib]
Outline: as §1

[4] = compound: Cc1ncc(-c2ccnc(Nc3ccc(S(C)(=O)=O)cc3)n2)n1C(C)C
Outline: as §1

[5] = compound: Cn1cc(-c2ccc3c(c2)CCN3C(=O)Cc2cccc(C(F)(F)F)c2)c2c(N)ncnc21
Outline: as §1

quisinostat = compound: Cn1cc(CNCC2CCN(c3ncc(C(=O)NO)cn3)CC2)c2ccccc21 [quisinostat]
Outline: as §1

tipifarnib = compound: Cn1cncc1[C@@](N)(c1ccc(Cl)cc1)c1ccc2c(c1)c(-c1cccc(Cl)c1)cc(=O)n2C [tipifarnib]
Outline: as §1

[6] = compound: NC(=O)Nc1cc(-c2cccc(F)c2)sc1C(=O)N[C@H]1CCCNC1
Outline: as §1

[7] = compound: NC(=O)c1cnc(N[C@@H]2CCCC[C@@H]2N)nc1Nc1cccc(-n2nccn2)c1
Outline: as §1

[8] = compound: NC1(c2ccc(-c3nc4ccn5c(=O)[nH]nc5c4cc3-c3ccccc3)cc2)CCC1
Outline: as §1

Target | log2 fold change (lapatinib) | log2 fold change (pictilisib) | log2 fold change (crizotinib) | log2 fold change [1] | log2 fold change (duvelisib) | log2 fold change (gandotinib) | log2 fold change (tozasertib) | log2 fold change (doramapimod) | log2 fold change (bafetinib) | log2 fold change [2] | log2 fold change (nilotinib) | log2 fold change [3] | log2 fold change (dasatinib) | log2 fold change [4] | log2 fold change [5] | log2 fold change (quisinostat) | log2 fold change (tipifarnib) | log2 fold change [6] | log2 fold change [7] | log2 fold change [8]
VPS37B (UniProt Q9H9H4) | inactive: 0.016 | inactive: -0.053 | inactive: 0.017 | inactive: 0.034 | inactive: -0.009 | inactive: -0.028 | inactive: 0.021 | inactive: 0.006 | inactive: -0.034 | inactive: -0.04 | inactive: 0.025 | inactive: -0.078 | inactive: -0.024 | inactive: 0.046 | inactive: -0.01 | inactive: -0.05 | inactive: -0.002 | inactive: -0.024 | inactive: -0.005 | inactive: 0
VPS54 (UniProt Q9P1Q0) | inactive: -0.018 | inactive: 0.068 | inactive: -0.296 | inactive: -0.263 | inactive: -0.012 | inactive: 0.399 | inactive: 0.047 | inactive: 0.066 | inactive: 0.431 | inactive: 0.395 | inactive: 0.013 | inactive: -0.041 | inactive: -0.112 | inactive: 0.205 | inactive: 0.146 | active: -0.409 | inactive: -0.111 | inactive: 0.065 | inactive: 0.089 | inactive: -0.121
VTI1A (UniProt Q96AJ9) | inactive: 0.141 | inactive: 0.003 | inactive: -0.04 | inactive: 0.029 | inactive: -0.027 | inactive: -0.06 | inactive: -0.005 | inactive: 0 | inactive: -0.011 | inactive: -0.042 | inactive: -0.007 | inactive: -0.028 | inactive: -0.012 | inactive: 0.017 | inactive: 0.02 | inactive: -0.007 | inactive: 0.049 | inactive: 0.037 | inactive: -0.049 | inactive: -0.006
VPS41 (UniProt P49754) | inactive: -0.018 | inactive: -0.046 | inactive: -0.011 | inactive: 0.079 | inactive: -0.021 | inactive: -0.093 | inactive: 0.047 | inactive: 0.023 | inactive: -0.021 | inactive: -0.05 | inactive: 0.034 | inactive: 0.014 | inactive: -0.038 | inactive: 0.001 | inactive: 0.057 | inactive: -0.048 | inactive: -0.029 | inactive: 0.029 | inactive: 0.001 | inactive: -0.009
VPS26A (UniProt O75436) | inactive: -0.013 | inactive: -0.017 | inactive: -0.033 | inactive: -0.083 | inactive: -0.004 | inactive: 0.058 | inactive: -0.014 | inactive: -0.006 | inactive: -0.013 | inactive: 0.02 | inactive: 0.011 | inactive: -0.008 | inactive: -0.009 | inactive: -0.017 | inactive: -0.023 | inactive: -0.097 | inactive: 0.002 | inactive: -0.001 | inactive: -0.014 | inactive: -0.023
WDR77 (UniProt Q9BQA1) | inactive: 0.012 | inactive: 0.016 | inactive: -0.027 | inactive: 0.014 | inactive: 0.119 | inactive: -0.037 | inactive: -0.005 | inactive: 0.008 | inactive: -0.024 | inactive: -0.047 | inactive: 0.056 | inactive: 0.028 | inactive: 0.093 | inactive: 0 | inactive: -0.013 | inactive: 0.014 | inactive: 0.048 | inactive: 0.006 | inactive: -0.008 | inactive: 0.039
WDR55 (UniProt Q9H6Y2) | inactive: -0.055 | inactive: 0.021 | inactive: -0.008 | inactive: -0.048 | inactive: 0.057 | inactive: 0.003 | inactive: 0.014 | inactive: 0.092 | inactive: -0.165 | inactive: 0.063 | inactive: -0.02 | inactive: 0.013 | inactive: -0.019 | inactive: -0.005 | inactive: -0.014 | inactive: 0.044 | inactive: 0.041 | inactive: -0.025 | inactive: 0.034 | inactive: -0.039
WDR62 isoform 4 (UniProt O43379) | inactive: -0.025 | inactive: 0.028 | inactive: -0.048 | inactive: -0.021 | inactive: 0.006 | inactive: -0.032 | inactive: 0.034 | inactive: 0.038 | inactive: -0.05 | inactive: 0.08 | inactive: -0.001 | inactive: 0.003 | inactive: -0.026 | inactive: 0 | inactive: 0.022 | inactive: -0.103 | inactive: -0.051 | inactive: 0.031 | inactive: -0.02 | inactive: -0.031
WTAP (UniProt Q15007) | inactive: 0.008 | inactive: -0.039 | inactive: -0.002 | inactive: -0.025 | inactive: 0.053 | inactive: -0.007 | inactive: 0.032 | inactive: -0.004 | inactive: -0.043 | inactive: 0.016 | inactive: 0.023 | inactive: 0.003 | inactive: -0.018 | inactive: -0.035 | inactive: -0.016 | inactive: -0.005 | inactive: 0.011 | inactive: 0.03 | inactive: -0.04 | inactive: -0.017
WDR26, A0A499FIZ0 | inactive: -0.001 | inactive: -0.006 | inactive: -0.016 | inactive: -0.025 | inactive: 0.016 | inactive: -0.025 | inactive: -0.008 | inactive: 0.051 | inactive: 0.006 | inactive: 0.015 | inactive: -0.01 | inactive: 0.013 | inactive: -0.008 | inactive: -0.007 | inactive: 0.037 | inactive: -0.028 | inactive: 0.005 | inactive: -0.005 | inactive: 0.019 | inactive: 0.011
WDSUB1 (UniProt Q8N9V3) | inactive: 0 | inactive: 0.012 | inactive: 0.003 | inactive: -0.06 | inactive: -0.02 | inactive: 0.074 | inactive: -0.007 | inactive: 0.009 | inactive: -0.047 | inactive: 0.038 | inactive: -0.038 | inactive: -0.024 | inactive: 0.025 | inactive: 0.004 | inactive: 0.014 | inactive: -0.07 | inactive: 0.009 | inactive: 0.012 | inactive: 0.004 | inactive: -0.029
VKORC1L1, A0A3B3ISV4 | inactive: -0.013 | inactive: -0.085 | inactive: 0.043 | inactive: -0.096 | inactive: 0.015 | inactive: -0.006 | inactive: -0.051 | inactive: -0.011 | inactive: -0.014 | inactive: 0.024 | inactive: 0.084 | inactive: 0.024 | inactive: 0.015 | inactive: 0.005 | inactive: 0.006 | inactive: 0.186 | inactive: 0.014 | inactive: -0.046 | inactive: -0.032 | inactive: 0.065

Single records, from the list above. Order of values: log2 fold change (lapatinib) | log2 fold change (pictilisib) | log2 fold change (crizotinib) | log2 fold change [1] | log2 fold change (duvelisib) | log2 fold change (gandotinib) | log2 fold change (tozasertib) | log2 fold change (doramapimod) | log2 fold change (bafetinib) | log2 fold change [2] | log2 fold change (nilotinib) | log2 fold change [3] | log2 fold change (dasatinib) | log2 fold change [4] | log2 fold change [5] | log2 fold change (quisinostat) | log2 fold change (tipifarnib) | log2 fold change [6] | log2 fold change [7] | log2 fold change [8]
WDR26, A0A499FIZ0 in the list: inactive: -0.001 | inactive: -0.006 | inactive: -0.016 | inactive: -0.025 | inactive: 0.016 | inactive: -0.025 | inactive: -0.008 | inactive: 0.051 | inactive: 0.006 | inactive: 0.015 | inactive: -0.01 | inactive: 0.013 | inactive: -0.008 | inactive: -0.007 | inactive: 0.037 | inactive: -0.028 | inactive: 0.005 | inactive: -0.005 | inactive: 0.019 | inactive: 0.011
WDSUB1 (UniProt Q8N9V3) in the list: inactive: 0 | inactive: 0.012 | inactive: 0.003 | inactive: -0.06 | inactive: -0.02 | inactive: 0.074 | inactive: -0.007 | inactive: 0.009 | inactive: -0.047 | inactive: 0.038 | inactive: -0.038 | inactive: -0.024 | inactive: 0.025 | inactive: 0.004 | inactive: 0.014 | inactive: -0.07 | inactive: 0.009 | inactive: 0.012 | inactive: 0.004 | inactive: -0.029

Source: the supplement of paper PMC10849652
